Measurements reported in PubChem BioAssay AID1159590 (NIAID, 2016)
Assay: 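Which core TLR signalling genes NF-kB activation by Pam3CSK4 depends on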. Cell system: mouse RAW264.7 macrophage reporter cells expressing GFP-p65 and a Tnf promoter-mCherry. Knock-down reagent: single siRNA against mouse genes. Timing: 48 to 72 hours after siRNA transfection, then 40 minutes of ligand. Treatment: Pam3CSK4 (TLR2/1 agonist) for 40 minutes before fixation; dose not given. Measurement: 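GFP-p65 nuclear to cytoplasmic intensity ratio from imaging, normalised per plate by median and MAD, given as robust z against negative controls, mean of replicates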. Reading the numbers: p65 nuclear entry z-score: higher = more p65 moved into nuclei than in negative-control wells. Rule for the call: In these data the active calls have p65 nuclear entry z-score, replicate mean at about -1.5 or lower, or at about 1.5 or higher. Meaning of the calls: active = strong change, up or down; inactive = little change.
This is one part, drawn at random, of 756 deposited reagents. In the full data, 128 (17%) got an active call. 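Calls are two-sided: both reduced and increased p65 nuclear entry count as active.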 Entries without a mark were called inactive. Reagents against one gene are numbered here. The record does not give: the amount of reagent.

The first 6 entries, to show the layout:
target	reagent	p65 nuclear entry z-score, replicate mean
Irak4 (GeneID 266632)	1	-1.05
Irak4 (GeneID 266632)	2	-2.77 (active)
Irak4 (GeneID 266632)	3	-2.27 (active)
Irak4 (GeneID 266632)	4	-1.42
Irak4 (GeneID 266632)	5	3.16 (active)
Irak4 (GeneID 266632)	6	1.43

Main list, repeating the preview:
target	reagent	p65 nuclear entry z-score, replicate mean
Irak4 (GeneID 266632)	1	-1.05
Irak4 (GeneID 266632)	2	-2.77 (active)
Irak4 (GeneID 266632)	3	-2.27 (active)
Irak4 (GeneID 266632)	4	-1.42
Irak4 (GeneID 266632)	5	3.16 (active)
Irak4 (GeneID 266632)	6	1.43
Ets1 (GeneID 23871)	1	0.155
Ets1 (GeneID 23871)	2	0.876
Ets1 (GeneID 23871)	3	-1.53 (active)
Ets1 (GeneID 23871)	4	2.82 (active)
Ets1 (GeneID 23871)	5	-2.17 (active)
Ets1 (GeneID 23871)	6	-0.151
Chuk (GeneID 12675)	1	-0.0716
Chuk (GeneID 12675)	2	-1.82 (active)
Chuk (GeneID 12675)	3	0.253
Chuk (GeneID 12675)	4	1.48
Chuk (GeneID 12675)	5	-1.84 (active)
Chuk (GeneID 12675)	6	-0.521
Nfkbie (GeneID 18037)	1	0.144
Nfkbie (GeneID 18037)	2	-0.637
Nfkbie (GeneID 18037)	3	-1.02
Nfkbie (GeneID 18037)	4	1.31
Nfkbie (GeneID 18037)	5	-0.829
Nfkbie (GeneID 18037)	6	-0.646
Ticam2 (GeneID 225471)	1	0.00753
Ticam2 (GeneID 225471)	2	0.211
Ticam2 (GeneID 225471)	3	-2.3 (active)
Ticam2 (GeneID 225471)	4	-0.855
Ticam2 (GeneID 225471)	5	-1.64 (active)
Ticam2 (GeneID 225471)	6	-0.345
Casp8 (GeneID 12370)	1	0.0849
Casp8 (GeneID 12370)	2	-1.06
Casp8 (GeneID 12370)	3	-0.693
Casp8 (GeneID 12370)	4	0.313
Casp8 (GeneID 12370)	5	-1.72 (active)
Casp8 (GeneID 12370)	6	-0.992
Mapk3 (GeneID 26417)	1	-1.34
Mapk3 (GeneID 26417)	2	1.12
Mapk3 (GeneID 26417)	3	-0.11
Mapk3 (GeneID 26417)	4	-0.962
Mapk3 (GeneID 26417)	5	-1.13
Mapk3 (GeneID 26417)	6	-0.936
Map2k6 (GeneID 26399)	1	-1.55 (active)
Map2k6 (GeneID 26399)	2	-1.3
Map2k6 (GeneID 26399)	3	-0.103
Map2k6 (GeneID 26399)	4	-0.564
Map2k6 (GeneID 26399)	5	1.07
Map2k6 (GeneID 26399)	6	0.215
